These results are taken from paper PMC12504463.

Protein sequences, listed by entry. Tags and fused reporters are not part of them.
UniProt O14503: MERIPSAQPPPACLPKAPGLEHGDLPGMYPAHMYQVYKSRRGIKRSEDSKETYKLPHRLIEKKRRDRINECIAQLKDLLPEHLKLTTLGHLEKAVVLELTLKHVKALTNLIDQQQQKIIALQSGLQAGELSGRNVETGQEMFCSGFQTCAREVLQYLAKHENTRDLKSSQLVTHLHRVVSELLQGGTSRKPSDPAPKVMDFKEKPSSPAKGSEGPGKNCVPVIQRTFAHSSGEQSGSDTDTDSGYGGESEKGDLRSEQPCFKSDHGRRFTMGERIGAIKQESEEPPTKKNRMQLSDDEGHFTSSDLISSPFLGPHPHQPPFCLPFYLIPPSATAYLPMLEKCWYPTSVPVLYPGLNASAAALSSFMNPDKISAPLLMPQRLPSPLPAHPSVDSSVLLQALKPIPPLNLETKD

Residue numbers refer to the chain shown, from its start. Names may count otherwise. No constants are given. Whether binding was seen depends on the method and setting. Binding seen in cells or lysates may run through a third protein. Some binding calls cover weakened binding; strength is not graded here.

This assay has as its target DEC1 (BHLHE40), basic HLH transcription factor (UniProt O14503). In words: co-IP; lysates of HEK-293T cells overexpressing ID4 and DEC1 (or EV); pre-incubated with non-immune IgG 2 h at 4 °C; immunoprecipitated with 2 μg Flag antibody or IgG at 4 °C overnight; A/G PLUS Agarose beads; washed with cold PBS; immunoblotting. A general note: A western blot detects proteins with antibodies after separation by electrophoresis.

B1: inhibitor of differentiation 4 (ID4), wildtype (protein, UniProt P47928 1-161)
chain: MKAVSPVRPSGRKAPSGCGGGELALRCLAEHGHSLGGSAAAAAAAAAARCKAAEAAADEPALCLQCDMNDCYSRLRRLVPTIPPNKKVSKVEILQHVIDYILDLQLALETHPALLRQPPPPAPPHHPAGTCPAAPPRTPLTALNTDPAGAVNKQGDSILCR
B1: the binding entry is “binds”.

B2: ID4 mutant (Q65R) (protein, UniProt P47928 1-161)
chain: B1 chain with Q65R
As for B2, the binding result is recorded as “no binding”.
